Measured values reported in publication PMC6904616.
Where two headings read alike, the source gives them in different places. Results are given in words; binding and its absence hold for the method and conditions named. In cells and extracts the contact can be indirect. These calls come from enrichment with a bait or labelling near it, and not all partners need be listed.

Protein sequences, listed by entry. Tags and fused reporters are not part of them. Lines headed by an entry give the natural chain unless they say otherwise; changes in a name come on top.
UniProt P09936: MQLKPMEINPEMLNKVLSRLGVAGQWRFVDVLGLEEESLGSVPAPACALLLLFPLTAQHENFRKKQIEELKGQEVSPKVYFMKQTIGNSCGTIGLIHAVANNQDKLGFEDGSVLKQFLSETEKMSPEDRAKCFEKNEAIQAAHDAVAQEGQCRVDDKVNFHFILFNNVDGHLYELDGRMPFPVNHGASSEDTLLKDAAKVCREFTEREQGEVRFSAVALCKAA
UniProt P41091: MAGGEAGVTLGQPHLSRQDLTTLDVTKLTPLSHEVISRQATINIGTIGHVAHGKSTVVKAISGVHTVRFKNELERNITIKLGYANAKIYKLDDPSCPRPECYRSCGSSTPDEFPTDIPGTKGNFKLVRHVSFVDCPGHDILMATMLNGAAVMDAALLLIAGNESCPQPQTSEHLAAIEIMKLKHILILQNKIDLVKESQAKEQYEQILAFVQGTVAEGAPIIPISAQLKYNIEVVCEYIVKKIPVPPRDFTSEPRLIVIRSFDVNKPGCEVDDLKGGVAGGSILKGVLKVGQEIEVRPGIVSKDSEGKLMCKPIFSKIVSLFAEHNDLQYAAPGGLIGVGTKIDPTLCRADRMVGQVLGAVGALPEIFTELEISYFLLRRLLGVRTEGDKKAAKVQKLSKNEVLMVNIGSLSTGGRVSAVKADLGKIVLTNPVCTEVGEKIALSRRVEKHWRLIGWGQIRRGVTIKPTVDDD
UniProt Q04637: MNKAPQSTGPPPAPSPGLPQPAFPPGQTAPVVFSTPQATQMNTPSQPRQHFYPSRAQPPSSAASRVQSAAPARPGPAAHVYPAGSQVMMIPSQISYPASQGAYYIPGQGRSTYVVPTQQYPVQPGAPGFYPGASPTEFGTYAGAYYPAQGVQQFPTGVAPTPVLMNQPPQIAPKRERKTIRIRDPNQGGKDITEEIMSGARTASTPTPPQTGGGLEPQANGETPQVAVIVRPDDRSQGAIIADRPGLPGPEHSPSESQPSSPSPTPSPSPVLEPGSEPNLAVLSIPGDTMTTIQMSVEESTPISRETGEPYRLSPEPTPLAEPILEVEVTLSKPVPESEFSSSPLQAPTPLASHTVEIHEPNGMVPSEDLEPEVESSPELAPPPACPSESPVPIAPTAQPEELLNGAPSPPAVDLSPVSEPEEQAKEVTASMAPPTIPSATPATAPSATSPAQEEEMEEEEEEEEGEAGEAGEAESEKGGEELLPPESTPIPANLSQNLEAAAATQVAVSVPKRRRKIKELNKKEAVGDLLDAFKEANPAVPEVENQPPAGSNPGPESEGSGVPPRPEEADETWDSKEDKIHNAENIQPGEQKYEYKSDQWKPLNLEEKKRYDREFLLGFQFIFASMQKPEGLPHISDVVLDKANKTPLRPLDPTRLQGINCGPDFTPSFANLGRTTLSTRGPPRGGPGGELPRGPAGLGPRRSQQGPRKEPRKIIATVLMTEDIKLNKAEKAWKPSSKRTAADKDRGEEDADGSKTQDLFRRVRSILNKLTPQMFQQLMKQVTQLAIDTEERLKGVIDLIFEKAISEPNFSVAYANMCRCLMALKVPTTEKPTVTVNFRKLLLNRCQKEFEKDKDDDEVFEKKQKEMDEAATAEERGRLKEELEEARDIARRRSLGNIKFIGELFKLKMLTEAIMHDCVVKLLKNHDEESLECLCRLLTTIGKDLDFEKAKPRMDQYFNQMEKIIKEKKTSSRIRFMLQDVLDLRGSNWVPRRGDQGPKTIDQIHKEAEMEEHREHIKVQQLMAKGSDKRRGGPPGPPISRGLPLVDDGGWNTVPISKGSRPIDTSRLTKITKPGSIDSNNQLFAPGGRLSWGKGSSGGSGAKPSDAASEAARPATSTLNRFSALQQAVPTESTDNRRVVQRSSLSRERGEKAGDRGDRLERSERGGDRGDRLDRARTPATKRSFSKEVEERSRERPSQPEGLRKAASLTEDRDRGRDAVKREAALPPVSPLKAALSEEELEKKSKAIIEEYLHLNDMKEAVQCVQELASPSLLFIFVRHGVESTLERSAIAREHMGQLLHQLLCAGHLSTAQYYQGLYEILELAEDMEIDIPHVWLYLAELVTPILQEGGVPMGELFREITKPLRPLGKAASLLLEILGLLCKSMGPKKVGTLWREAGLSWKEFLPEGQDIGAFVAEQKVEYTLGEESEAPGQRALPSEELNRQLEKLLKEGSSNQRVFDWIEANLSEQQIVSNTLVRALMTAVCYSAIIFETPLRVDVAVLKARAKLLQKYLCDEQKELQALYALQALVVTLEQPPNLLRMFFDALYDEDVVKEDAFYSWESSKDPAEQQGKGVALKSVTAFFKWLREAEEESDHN
UniProt O43432: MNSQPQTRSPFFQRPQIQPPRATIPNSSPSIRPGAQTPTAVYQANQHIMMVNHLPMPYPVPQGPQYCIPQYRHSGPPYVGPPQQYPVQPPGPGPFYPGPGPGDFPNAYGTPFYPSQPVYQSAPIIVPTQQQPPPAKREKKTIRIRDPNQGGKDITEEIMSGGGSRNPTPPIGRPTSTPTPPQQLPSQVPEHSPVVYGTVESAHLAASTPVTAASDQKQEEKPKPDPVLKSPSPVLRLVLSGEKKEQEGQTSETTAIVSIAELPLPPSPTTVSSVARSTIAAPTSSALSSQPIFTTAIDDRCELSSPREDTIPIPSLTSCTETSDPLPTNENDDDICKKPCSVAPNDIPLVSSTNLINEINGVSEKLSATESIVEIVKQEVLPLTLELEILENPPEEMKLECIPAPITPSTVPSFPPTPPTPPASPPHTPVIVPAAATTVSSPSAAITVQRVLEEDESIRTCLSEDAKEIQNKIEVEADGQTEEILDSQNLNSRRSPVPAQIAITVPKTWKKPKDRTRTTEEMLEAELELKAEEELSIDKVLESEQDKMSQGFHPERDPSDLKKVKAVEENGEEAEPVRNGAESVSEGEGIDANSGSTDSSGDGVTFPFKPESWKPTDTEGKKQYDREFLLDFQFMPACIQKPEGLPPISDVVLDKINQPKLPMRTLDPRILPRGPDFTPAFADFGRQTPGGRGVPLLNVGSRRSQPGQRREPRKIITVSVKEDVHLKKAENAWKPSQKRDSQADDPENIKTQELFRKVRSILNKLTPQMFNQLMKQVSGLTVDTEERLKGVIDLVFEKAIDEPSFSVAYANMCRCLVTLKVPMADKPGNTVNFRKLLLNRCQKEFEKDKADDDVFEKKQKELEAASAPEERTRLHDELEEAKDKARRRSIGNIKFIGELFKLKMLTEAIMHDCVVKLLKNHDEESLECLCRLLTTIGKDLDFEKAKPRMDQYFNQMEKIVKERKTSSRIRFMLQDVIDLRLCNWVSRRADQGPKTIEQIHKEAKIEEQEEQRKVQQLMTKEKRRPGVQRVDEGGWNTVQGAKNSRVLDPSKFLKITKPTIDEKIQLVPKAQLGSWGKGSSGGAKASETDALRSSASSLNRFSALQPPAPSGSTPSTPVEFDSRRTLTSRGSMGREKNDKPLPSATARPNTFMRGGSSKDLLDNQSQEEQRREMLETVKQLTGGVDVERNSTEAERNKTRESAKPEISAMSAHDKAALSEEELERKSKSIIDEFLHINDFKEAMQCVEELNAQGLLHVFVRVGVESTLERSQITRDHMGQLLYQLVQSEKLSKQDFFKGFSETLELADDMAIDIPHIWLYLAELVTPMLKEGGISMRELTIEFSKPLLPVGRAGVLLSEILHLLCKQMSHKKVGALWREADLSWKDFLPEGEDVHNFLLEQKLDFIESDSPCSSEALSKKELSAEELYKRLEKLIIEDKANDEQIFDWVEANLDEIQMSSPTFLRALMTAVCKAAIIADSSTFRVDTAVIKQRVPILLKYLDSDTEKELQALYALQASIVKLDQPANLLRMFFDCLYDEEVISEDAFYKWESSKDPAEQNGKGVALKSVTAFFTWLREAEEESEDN
UniProt P55884: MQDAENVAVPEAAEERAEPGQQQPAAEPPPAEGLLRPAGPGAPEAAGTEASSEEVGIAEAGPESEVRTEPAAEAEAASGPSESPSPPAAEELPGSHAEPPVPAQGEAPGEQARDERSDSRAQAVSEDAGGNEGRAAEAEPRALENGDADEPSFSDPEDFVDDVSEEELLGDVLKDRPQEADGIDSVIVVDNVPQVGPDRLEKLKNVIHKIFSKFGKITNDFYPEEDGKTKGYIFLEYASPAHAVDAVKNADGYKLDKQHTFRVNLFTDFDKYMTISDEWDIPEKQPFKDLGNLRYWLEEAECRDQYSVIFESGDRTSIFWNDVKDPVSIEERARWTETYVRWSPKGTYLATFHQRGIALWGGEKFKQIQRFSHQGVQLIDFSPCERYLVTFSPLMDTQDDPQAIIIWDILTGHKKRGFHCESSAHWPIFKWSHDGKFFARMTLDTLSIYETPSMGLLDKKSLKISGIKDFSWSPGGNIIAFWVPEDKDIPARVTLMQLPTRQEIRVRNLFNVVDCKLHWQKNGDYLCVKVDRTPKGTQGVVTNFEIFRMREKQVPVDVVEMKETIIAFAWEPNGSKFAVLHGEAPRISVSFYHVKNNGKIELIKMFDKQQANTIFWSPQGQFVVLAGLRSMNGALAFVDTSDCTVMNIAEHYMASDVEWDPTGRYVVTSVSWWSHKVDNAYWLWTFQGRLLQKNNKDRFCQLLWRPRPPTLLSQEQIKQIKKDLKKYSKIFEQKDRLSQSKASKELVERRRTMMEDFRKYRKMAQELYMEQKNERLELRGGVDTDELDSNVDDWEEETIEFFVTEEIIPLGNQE
UniProt O15372: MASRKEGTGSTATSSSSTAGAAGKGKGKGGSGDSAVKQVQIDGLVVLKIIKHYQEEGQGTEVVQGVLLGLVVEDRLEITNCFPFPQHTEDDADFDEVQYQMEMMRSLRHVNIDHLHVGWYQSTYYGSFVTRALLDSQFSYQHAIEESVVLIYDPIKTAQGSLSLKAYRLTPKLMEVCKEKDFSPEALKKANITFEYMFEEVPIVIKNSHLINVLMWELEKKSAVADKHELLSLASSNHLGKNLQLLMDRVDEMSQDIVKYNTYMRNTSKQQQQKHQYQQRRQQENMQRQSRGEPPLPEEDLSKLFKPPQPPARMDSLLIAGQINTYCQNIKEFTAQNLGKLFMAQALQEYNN
UniProt P78344: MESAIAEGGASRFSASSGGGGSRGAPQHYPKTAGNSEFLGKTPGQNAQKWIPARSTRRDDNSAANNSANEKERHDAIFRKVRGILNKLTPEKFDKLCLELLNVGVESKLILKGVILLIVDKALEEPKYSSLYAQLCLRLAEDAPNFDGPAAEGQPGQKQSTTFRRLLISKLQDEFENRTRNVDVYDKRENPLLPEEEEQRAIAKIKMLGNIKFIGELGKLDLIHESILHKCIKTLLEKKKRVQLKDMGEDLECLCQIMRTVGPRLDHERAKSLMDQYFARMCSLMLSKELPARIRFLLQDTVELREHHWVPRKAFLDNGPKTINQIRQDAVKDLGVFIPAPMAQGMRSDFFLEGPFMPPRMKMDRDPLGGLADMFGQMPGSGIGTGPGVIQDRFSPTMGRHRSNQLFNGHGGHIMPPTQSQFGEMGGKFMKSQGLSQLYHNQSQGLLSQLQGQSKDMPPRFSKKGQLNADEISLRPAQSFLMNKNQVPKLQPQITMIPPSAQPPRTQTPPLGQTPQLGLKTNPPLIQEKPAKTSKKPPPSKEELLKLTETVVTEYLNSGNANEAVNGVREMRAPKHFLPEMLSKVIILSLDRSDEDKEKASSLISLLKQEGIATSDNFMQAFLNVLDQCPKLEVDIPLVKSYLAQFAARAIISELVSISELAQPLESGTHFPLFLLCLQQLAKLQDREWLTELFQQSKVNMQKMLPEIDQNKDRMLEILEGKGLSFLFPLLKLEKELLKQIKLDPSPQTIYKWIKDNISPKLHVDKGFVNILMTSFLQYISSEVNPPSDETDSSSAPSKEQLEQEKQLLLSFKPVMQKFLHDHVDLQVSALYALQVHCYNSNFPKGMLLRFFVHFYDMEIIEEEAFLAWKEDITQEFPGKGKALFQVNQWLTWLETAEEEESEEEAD
UniProt P63241: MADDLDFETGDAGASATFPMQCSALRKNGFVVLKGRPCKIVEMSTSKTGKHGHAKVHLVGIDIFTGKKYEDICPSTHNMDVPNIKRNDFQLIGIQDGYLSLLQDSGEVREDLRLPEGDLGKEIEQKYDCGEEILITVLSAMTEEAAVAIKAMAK
UniProt P60842: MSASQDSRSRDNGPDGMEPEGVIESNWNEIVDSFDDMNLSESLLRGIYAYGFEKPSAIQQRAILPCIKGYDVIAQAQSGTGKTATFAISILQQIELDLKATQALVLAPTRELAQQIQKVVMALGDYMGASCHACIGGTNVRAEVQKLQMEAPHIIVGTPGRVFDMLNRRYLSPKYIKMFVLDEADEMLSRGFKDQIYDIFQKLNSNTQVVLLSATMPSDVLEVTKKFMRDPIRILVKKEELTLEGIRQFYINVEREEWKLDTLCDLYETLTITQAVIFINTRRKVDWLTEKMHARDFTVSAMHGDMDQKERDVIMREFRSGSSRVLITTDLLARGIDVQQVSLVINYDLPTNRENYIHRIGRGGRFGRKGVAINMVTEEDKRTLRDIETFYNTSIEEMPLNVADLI

Tests used:
Assay in all cases: proximity labelling; BioID2 fused to the N-terminus of UCH-L1, KMS11 cells pulsed with biotin, lysed, streptavidin retrieval and proteomic identification; duplicate experiments; compared with BioID2 alone
BioID2-UCHL1 (wild type) [1] = target: BioID2-UCHL1 (wild type) (UniProt P09936)
BioID2-UCHL1 C220S [2] = target: BioID2-UCHL1 C220S (UniProt P09936)
BioID2-UCHL1 (wild type) [3] = target: BioID2-UCHL1 (wild type) (UniProt P09936); remark: listed apart in the source
BioID2-UCHL1 C220S [4] = target: BioID2-UCHL1 C220S (UniProt P09936); remark: listed apart in the source

Row | Molecule | binding (BioID2-UCHL1 (wild type) [1]) | binding (BioID2-UCHL1 C220S [2]) | binding (BioID2-UCHL1 (wild type) [3]) | binding (BioID2-UCHL1 C220S [4])
1 | EIF2S3 (from UniProt P41091 1-472) | binds | binds |  | 
2 | EIF3G (from UniProt O75821 1-320) | binds | binds |  | 
3 | EIF4G1 (from UniProt Q04637 1-1599) | binds | binds |  | 
4 | EIF4G3 (from UniProt O43432 1-1585) | binds | binds |  | 
5 | EIF2A (protein, UniProt Q9BY44 1-585) MAPSTPLLTVRGSEGLYMVNGPPHFTESTVFPRESGKNCKVCIFSKDGTLFAWGNGEKVNIISVTNKGLLHSFDLLKAVCLEFSPKNTVLATWQPYTTSKDGTAGIPNLQLYDVKTGTCLKSFIQKKMQNWCPSWSEDETLCARNVNNEVHFFENNNFNTIANKLHLQKINDFVLSPGPQPYKVAVYVPGSKGAPSFVRLYQYPNFAGPHAALANKSFFKADKVTMLWNKKATAVLVIASTDVDKTGASYYGEQTLHYIATNGESAVVQLPKNGPIYDVVWNSSSTEFCAVYGFMPAKATIFNLKCDPVFDFGTGPRNAAYYSPHGHILVLAGFGNLRGQMEVWDVKNYKLISKPVASDSTYFAWCPDGEHILTATCAPRLRVNNGYKIWHYTGSILHKYDVPSNAELWQVSWQPFLDGIFPAKTITYQAVPSEVPNEEPKVATAYRPPALRNKPITNSKLHEEEPPQNMKPQSGNDKPLSKTALKNQRKHEAKKAAKQEARSDKSPDLAPTPAPQSTPRNTVSQSISGDPEIDKKIKNLKKKLKAIEQLKEQAATGKQLEKNQLEKIQKETALLQELEDLELGI |  |  | binds | binds

Results, then the molecule that gave them:

Row | binding (BioID2-UCHL1 (wild type) [1]) | binding (BioID2-UCHL1 C220S [2]) | binding (BioID2-UCHL1 (wild type) [3]) | binding (BioID2-UCHL1 C220S [4]) | Molecule
6 | binds |  |  |  | EIF3B (from UniProt P55884 1-814)
7 | binds |  |  |  | EIF3H (from UniProt O15372 1-352)
8 | binds | binds |  |  | EIF4G2 (from UniProt P78344 1-907)
9 | binds | binds |  |  | EIF5A (from UniProt P63241 1-154)
10 | binds | binds |  |  | PABPC1 (from UniProt P11940 1-636)
11 | binds |  |  |  | eIF4A (eIF4F complex subunit) (from UniProt P60842 1-406)
12 |  |  | binds | binds | DHX29 (protein, UniProt Q7Z478 1-1369) MGGKNKKHKAPAAAVVRAAVSASRAKSAEAGIAGEAQSKKPVSRPATAAAAAAGSREPRVKQGPKIYSFNSTNDSSGPANLDKSILKVVINNKLEQRIIGVINEHKKQNNDKGMISGRLTAKKLQDLYMALQAFSFKTKDIEDAMTNTLLYGGDLHSALDWLCLNLSDDALPEGFSQEFEEQQPKSRPKFQSPQIQATISPPLQPKTKTYEEDPKSKPKKEEKNMEVNMKEWILRYAEQQNEEEKNENSKSLEEEEKFDPNERYLHLAAKLLDAKEQAATFKLEKNKQGQKEAQEKIRKFQREMETLEDHPVFNPAMKISHQQNERKKPPVATEGESALNFNLFEKSAAATEEEKDKKKEPHDVRNFDYTARSWTGKSPKQFLIDWVRKNLPKSPNPSFEKVPVGRYWKCRVRVIKSEDDVLVVCPTILTEDGMQAQHLGATLALYRLVKGQSVHQLLPPTYRDVWLEWSDAEKKREELNKMETNKPRDLFIAKLLNKLKQQQQQQQQHSENKRENSEDPEESWENLVSDEDFSALSLESANVEDLEPVRNLFRKLQSTPKYQKLLKERQQLPVFKHRDSIVETLKRHRVVVVAGETGSGKSTQVPHFLLEDLLLNEWEASKCNIVCTQPRRISAVSLANRVCDELGCENGPGGRNSLCGYQIRMESRACESTRLLYCTTGVLLRKLQEDGLLSNVSHVIVDEVHERSVQSDFLLIILKEILQKRSDLHLILMSATVDSEKFSTYFTHCPILRISGRSYPVEVFHLEDIIEETGFVLEKDSEYCQKFLEEEEEVTINVTSKAGGIKKYQEYIPVQTGAHADLNPFYQKYSSRTQHAILYMNPHKINLDLILELLAYLDKSPQFRNIEGAVLIFLPGLAHIQQLYDLLSNDRRFYSERYKVIALHSILSTQDQAAAFTLPPPGVRKIVLATNIAETGITIPDVVFVIDTGRTKENKYHESSQMSSLVETFVSKASALQRQGRAGRVRDGFCFRMYTRERFEGFMDYSVPEILRVPLEELCLHIMKCNLGSPEDFLSKALDPPQLQVISNAMNLLRKIGACELNEPKLTPLGQHLAALPVNVKIGKMLIFGAIFGCLDPVATLAAVMTEKSPFTTPIGRKDEADLAKSALAMADSDHLTIYNAYLGWKKARQEGGYRSEITYCRRNFLNRTSLLTLEDVKQELIKLVKAAGFSSSTTSTSWEGNRASQTLSFQEIALLKAVLVAGLYDNVGKIIYTKSVDVTEKLACIVETAQGKAQVHPSSVNRDLQTHGWLLYQEKIRYARVYLRETTLITPFPVLLFGGDIEVQHRERLLSIDGWIYFQAPVKIAVIFKQLRVLIDSVLRKKLENPKMSLENDKILQIITELIKTENN
